In WO2019024911A1:
Results are given in words; binding and its absence hold for the method and conditions named. Some results given as binding are weak or reduced against the parent protein; the word gives no strength. For some assays here: Sequences can lack the tags named with a protein.

What was measured:
[1] = molecular target: T1, human B7H3 on the cell surface (human) (UniProt Q5ZPR3); test: flow cytometry of hybridoma supernatant on CHO-S cells stably expressing B7-H3 against blank CHO-S cells
T1 sequence: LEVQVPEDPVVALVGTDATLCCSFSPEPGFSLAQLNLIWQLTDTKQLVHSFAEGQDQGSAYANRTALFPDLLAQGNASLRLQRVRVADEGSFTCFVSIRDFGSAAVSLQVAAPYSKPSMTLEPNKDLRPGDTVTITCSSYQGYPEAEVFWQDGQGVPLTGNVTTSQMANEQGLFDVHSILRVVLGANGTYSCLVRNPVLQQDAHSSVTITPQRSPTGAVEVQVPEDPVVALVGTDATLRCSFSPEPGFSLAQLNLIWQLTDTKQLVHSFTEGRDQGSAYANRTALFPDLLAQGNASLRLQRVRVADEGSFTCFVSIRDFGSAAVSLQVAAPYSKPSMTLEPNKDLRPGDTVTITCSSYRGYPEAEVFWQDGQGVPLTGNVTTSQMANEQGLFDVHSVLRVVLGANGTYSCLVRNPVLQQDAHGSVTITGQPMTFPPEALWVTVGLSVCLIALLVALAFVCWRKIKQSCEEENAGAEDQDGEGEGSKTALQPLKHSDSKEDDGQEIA

[2] = molecular target: T2, B7-H3 recombinant protein (human B7-H3 with huFc tag, h-B7H3-Fc) (human) (UniProt Q5ZPR3); test: ELISA of hybridoma supernatant on B7-H3 recombinant protein
T2 sequence (looked up): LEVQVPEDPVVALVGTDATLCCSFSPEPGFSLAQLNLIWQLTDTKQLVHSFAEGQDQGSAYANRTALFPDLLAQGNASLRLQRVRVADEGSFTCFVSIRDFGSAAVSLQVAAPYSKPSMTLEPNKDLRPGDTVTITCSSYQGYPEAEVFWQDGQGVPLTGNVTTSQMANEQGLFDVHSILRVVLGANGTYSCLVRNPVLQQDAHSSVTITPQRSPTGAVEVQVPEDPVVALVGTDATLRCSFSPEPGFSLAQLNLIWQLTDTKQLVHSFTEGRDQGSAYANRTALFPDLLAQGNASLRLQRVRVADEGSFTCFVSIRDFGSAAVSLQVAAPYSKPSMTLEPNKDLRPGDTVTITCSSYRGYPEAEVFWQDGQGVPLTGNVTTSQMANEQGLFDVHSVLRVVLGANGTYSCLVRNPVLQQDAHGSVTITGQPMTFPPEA

binding [1]: binds
binding [2]: binds
B1: murine monoclonal antibody m1704 (antibody, V domains shown)
VH: EVQLVESGGGLVKSGGSLKLSCAASGFTFSRYGMSWVRQTPEKRLEWVAAISSNGGSIYYPDTVKGRLTISRDNAKNTLYLQMISLRSEDTALYFCTRHYLLFEMDYWGRGTSVTVSS
VL: DIVMTQSQEFMSTTVGDRVYITCKASQNVNTAVAWYQQKPGQSPKLLIFSASNRYTGVPDRFTGSGSGTDFTLTISNVQSEDLAAYFCQQYSSSLTFGAGTKLELK
